The target of the assay is Retroelement silencing factor 1 (RESF1), Flag-tagged (mouse) (UniProt Q5DTW7). As to the kind of experiment: co-IP; Nuclear extracts of E14/T ESCs co-transfected with Flag-RESF1 and HA-NANOG; NE buffer (20 mM Hepes pH 7.6, 350 mM KCl, 0.2% NP-40), benzonase-treated; anti-FLAG M2 affinity beads, 2 h at room temperature; immunoblot; control cells expressed HA-NANOG alone. Background: A western blot detects proteins with antibodies after separation by electrophoresis.

The chains behind the UniProt entries cited, without tags or fusion partners.
UniProt Q5DTW7: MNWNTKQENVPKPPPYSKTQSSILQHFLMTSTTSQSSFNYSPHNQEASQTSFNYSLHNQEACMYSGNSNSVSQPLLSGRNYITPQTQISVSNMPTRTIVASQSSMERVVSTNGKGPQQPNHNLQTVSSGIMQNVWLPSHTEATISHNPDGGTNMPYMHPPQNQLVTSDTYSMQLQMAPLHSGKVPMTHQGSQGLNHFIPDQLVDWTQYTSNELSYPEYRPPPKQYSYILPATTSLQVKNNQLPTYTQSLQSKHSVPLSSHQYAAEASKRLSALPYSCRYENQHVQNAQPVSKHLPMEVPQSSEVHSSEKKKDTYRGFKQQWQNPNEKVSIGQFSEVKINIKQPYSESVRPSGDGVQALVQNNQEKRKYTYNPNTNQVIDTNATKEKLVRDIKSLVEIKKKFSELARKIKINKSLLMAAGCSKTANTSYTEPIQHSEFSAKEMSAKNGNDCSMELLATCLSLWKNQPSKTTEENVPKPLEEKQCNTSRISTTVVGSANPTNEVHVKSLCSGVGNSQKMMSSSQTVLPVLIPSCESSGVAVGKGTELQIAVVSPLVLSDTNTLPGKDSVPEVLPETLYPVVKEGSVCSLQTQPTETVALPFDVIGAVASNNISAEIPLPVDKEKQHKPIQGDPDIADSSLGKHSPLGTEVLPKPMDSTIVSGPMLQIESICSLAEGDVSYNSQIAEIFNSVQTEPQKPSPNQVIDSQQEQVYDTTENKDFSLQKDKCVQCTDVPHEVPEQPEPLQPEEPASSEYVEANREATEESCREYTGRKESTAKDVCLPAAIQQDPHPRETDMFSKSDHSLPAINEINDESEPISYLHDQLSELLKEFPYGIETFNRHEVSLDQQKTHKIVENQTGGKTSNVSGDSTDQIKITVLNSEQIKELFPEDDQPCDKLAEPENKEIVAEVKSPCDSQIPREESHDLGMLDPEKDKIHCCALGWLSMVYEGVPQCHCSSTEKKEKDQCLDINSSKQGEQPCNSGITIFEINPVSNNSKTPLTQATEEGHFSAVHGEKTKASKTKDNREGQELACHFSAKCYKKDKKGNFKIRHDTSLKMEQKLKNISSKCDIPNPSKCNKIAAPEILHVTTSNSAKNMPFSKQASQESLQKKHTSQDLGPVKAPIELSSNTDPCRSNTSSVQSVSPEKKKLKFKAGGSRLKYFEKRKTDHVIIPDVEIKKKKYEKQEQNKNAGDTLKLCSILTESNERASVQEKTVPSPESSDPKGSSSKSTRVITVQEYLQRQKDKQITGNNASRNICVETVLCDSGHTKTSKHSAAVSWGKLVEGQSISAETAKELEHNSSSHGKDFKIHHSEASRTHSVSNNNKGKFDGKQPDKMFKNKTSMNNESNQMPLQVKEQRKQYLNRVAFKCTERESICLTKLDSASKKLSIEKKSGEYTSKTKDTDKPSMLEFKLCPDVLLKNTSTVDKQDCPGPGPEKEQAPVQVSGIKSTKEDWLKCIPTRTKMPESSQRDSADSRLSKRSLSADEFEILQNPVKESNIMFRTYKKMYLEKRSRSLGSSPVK

No constants are given. Whether binding was seen depends on the method and setting. Binding seen in cells or lysates may run through a third protein. Some results given as binding are weak or reduced against the parent protein; the word gives no strength. Tags and fused reporters may be left off the sequences shown.

B1: NANOG, HA-tagged (protein, UniProt Q80Z64 1-305)
chain: MSVGLPGPHSLPSSEEASNSGNASSMPAVFHPENYSCLQGSATEMLCTEAASPRPSSEDLPLQGSPDSSTSPKQKLSSPEADKGPEEEENKVLARKQKMRTVFSQAQLCALKDRFQKQKYLSLQQMQELSSILNLSYKQVKTWFQNQRMKCKRWQKNQWLKTSNGLIQKGSAPVEYPSIHCSYPQGYLVNASGSLSMWGSQTWTNPTWSSQTWTNPTWNNQTWTNPTWSSQAWTAQSWNGQPWNAAPLHNFGEDFLQPYVQLQQNFSASDLEVNLEATRESHAHFSTPQALELFLNYSVTPPGEI
For B1, the binding result was “binds”.

Values taken from paper PMC8500223.
